Measured values taken from US20140030739A1.
Results are given in words; binding and its absence hold for the method and conditions named. Some entries that bind do so weakly or less than the wild type.

Protein sequences, listed by entry. Tags and fused reporters are not part of them. Lines headed by an entry give the natural chain unless they say otherwise; changes in a name come on top.
UniProt P60983: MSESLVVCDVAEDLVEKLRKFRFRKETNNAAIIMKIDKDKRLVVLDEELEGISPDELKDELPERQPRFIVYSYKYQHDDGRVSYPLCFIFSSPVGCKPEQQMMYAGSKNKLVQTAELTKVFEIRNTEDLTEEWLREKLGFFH

How the values were obtained:
[1] = biological target: glia maturation factor, beta [Homo sapiens] (GMF-B), soluble form (Homo sapiens) (UniProt P60983); assay: Western blot of MDA-MB-231 culture supernatant
[2] = biological target: glia maturation factor, beta [Homo sapiens] (GMF-B), soluble form (Homo sapiens) (UniProt P60983); assay: antigen isolation, tryptic digest and MALDI-MS identification
[3] = biological target: glia maturation factor, beta [Homo sapiens] (GMF-B), soluble form (Homo sapiens) (UniProt P60983); assay: immunohistochemistry on AD brain tissue sections, mAb at 1:400

Measured: binding

B1: Alper-sGMF-B mAb (antibody, IgG1, V domains shown)
VH: VQLQQSGPELVKPGASVKMSCKASGYTFTSYVMHWVKQKPGQGLEWIGYINPYNEGTKYNEKFKGKATLTSDKSSSTAYMELSSLTSEDSAVYYCARSTMITTGFAYWGQGTTVT
VL: DILMTQSPSSLSASLGGKVTITCKASQDINKYIAWYQHKPGEGPRLLIHYTSTLQPGIPSRFSGSGSGRDYSFSITNLEPEDIATYYCLQYDNLWTFGGGTKLEIK
binds: all assays above
